PubChem BioAssay AID1259308 | NCATS, 2017

- Test: 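Knock-downs that increase output of a recombinant reporter protein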 (primary screen)
- Cell system: human HEK293 embryonic kidney cells stably expressing firefly luciferase (HEK-CMV-Luc2-Hygro)
- Reagent: single siRNA against human genes, 0.8 pmol siRNA per well
- Timing: 72 h
- Detection: 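Reporter luminescence and viable-cell signal on separate replicate plates, given as percent of non-targeting control and median/MAD z-scores, plus per-cell luciferase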
- Reading the numbers: total luciferase, z-score and total luciferase, % of control: higher = more reporter protein produced
- Active means: 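Active when the median/MAD z-score for overall luciferase is greater than 3; a gene was taken forward for validation with new siRNAs if at least two of its three siRNAs passed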
- Meaning of the calls: active = raised luciferase; inactive = no rise
Here is one part, drawn at random, of about 59,000 deposited reagents. About 1,510 of all reagents (2.6%) count as active. 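Calls use total luciferase alone and ignore viability, so some active siRNAs may act by altering cell number.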 A number with no mark means an inactive call. The numbers tell different reagents against one gene apart. Not all columns of the deposit are shown. Reagent sequences are not shown.

LCE5A (late cornified envelope 5A) #1 showed total luciferase, z-score 0.968; total luciferase, % of control 101.
LCE5A (late cornified envelope 5A) #2 gave total luciferase, z-score 4.32 (active); total luciferase, % of control 168.
Silencing of LCE5A (late cornified envelope 5A) #3 came out at: total luciferase, z-score -1.39; total luciferase, % of control 54.2.
Against F2R (coagulation factor II thrombin receptor) #1, the values are total luciferase, z-score -1.21; total luciferase, % of control 57.8.
F2R (coagulation factor II thrombin receptor) #2 gave total luciferase, z-score -0.157; total luciferase, % of control 78.8.
Knock-down of F2R (coagulation factor II thrombin receptor) #3 gave: total luciferase, z-score -1.26; total luciferase, % of control 56.8.
Knock-down of MISP (mitotic spindle positioning) #1 came out at: total luciferase, z-score 0.158; total luciferase, % of control 85.
Knock-down of MISP (mitotic spindle positioning) #2 came out at: total luciferase, z-score 1.86; total luciferase, % of control 119.
With knock-down of MISP (mitotic spindle positioning) #3 the results were total luciferase, z-score -0.497; total luciferase, % of control 72.
After knock-down of CYP26A1 (cytochrome P450 family 26 subfamily A member 1) #1, the record shows total luciferase, z-score -0.277; total luciferase, % of control 76.4.
CYP26A1 (cytochrome P450 family 26 subfamily A member 1) #2 gave total luciferase, z-score 0.354; total luciferase, % of control 88.9.
After knock-down of CYP26A1 (cytochrome P450 family 26 subfamily A member 1) #3, the record shows total luciferase, z-score 0.797; total luciferase, % of control 97.7.
Against CALU (calumenin) #1 the deposit lists total luciferase, z-score 0.299; total luciferase, % of control 87.8.
CALU (calumenin) #2 showed total luciferase, z-score -0.0861; total luciferase, % of control 80.2.
Against CALU (calumenin) #3 the deposit lists total luciferase, z-score 0.138; total luciferase, % of control 84.6.
Against NME7 (NME/NM23 family member 7) #1, the entry reads total luciferase, z-score 0.2; total luciferase, % of control 85.9.
Against NME7 (NME/NM23 family member 7) #2 the deposit lists total luciferase, z-score 0.998; total luciferase, % of control 102.
NME7 (NME/NM23 family member 7) #3 scored total luciferase, z-score 1.56; total luciferase, % of control 113.
With knock-down of RNF130 (ring finger protein 130) #1 the results were total luciferase, z-score 0.386; total luciferase, % of control 89.6.
After knock-down of RNF130 (ring finger protein 130) #2 the results were total luciferase, z-score 1.04; total luciferase, % of control 103.
RNF130 (ring finger protein 130) #3 scored total luciferase, z-score -0.423; total luciferase, % of control 73.5.

2 entries from above, reduced to “total luciferase, z-score”.
MISP (mitotic spindle positioning) #3 = -0.497
CYP26A1 (cytochrome P450 family 26 subfamily A member 1) #1 = -0.277
